The list shows a part of the results. These are further read-outs of the screen, such as a control signal, another cell line or another target. No call is given for them. The list favours compounds with an active or inconclusive main result. The note in brackets gives the kind of curve behind each potency; many fits are weak.
Assay: qHTS Assay for Modulators of Lamin A Splicing
Conditions: HeLa LMNA splicing GFP/RFP minigene ratio, 48 h
In short: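 S3 HeLa stable clones carrying a lamin A-EGFP splicing minigene plus DsRed2 were seeded at 600 cells/well in Opti-MEM with 2% FBS, pin-dosed and incubated 48 h at 37°C. Acumen cytometry (488 nm) gave the GFP/RFP total-intensity ratio.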

[1] = measured here: RFP viability control channel
[2] = measured here: GFP splicing reporter channel

| Structure (SMILES) | AC50 [1] | AC50 [2] |
| --- | --- | --- |
| CN(C)S(=O)(=O)c1ccc(S(=O)(=O)Nc2ccc3c(c2)oc2ccccc23)cc1 | 28.2 µM [rising, single point] |  |
| Cc1cc(C)n2nc(C(=O)Nc3ccc4c(c3)CCC4)nc2n1 |  | 35.5 µM [falling, partial curve] |
| Cc1cc(NC(=O)/C=C/C(=O)N(CC(=O)NC2CCCC2)c2cccc3ccccc23)no1 | 35.5 µM [falling, single point] | 15.8 µM [falling, single point] |
| O=C1c2ccccc2C(=O)c2c1ccc1c(=O)n(C3CCCCC3)[nH]c21 | 7.94 µM [rising, partial curve] |  |
| COc1ccc(NC(=O)/C(C#N)=C\C=C\c2ccco2)cc1 | 11.2 µM [rising, single point] |  |
| CCS(=O)(=O)N1CCN(c2nc(-c3ccccc3)cs2)CC1 | 4.47 µM [rising, full curve, poor fit] |  |
| CCOc1ccc(C(c2c(O)cc(C)n(CCOC)c2=O)N2CCN(c3ccccc3F)CC2)cc1 (centres undefined) | 0.158 µM [rising, full curve, poor fit] | 0.355 µM [rising, partial curve, poor fit] |
| Cc1ccccc1N1C(=O)CN(Cc2sccc2C)C1=S | 35.5 µM [rising, single point] | 35.5 µM [rising, single point] |
| COc1ccc(-c2cc(C(F)F)n3ncc(C(=O)N4CCN5CCCC5C4)c3n2)cc1 (centres undefined) | 11.2 µM [rising, partial curve] | 12.6 µM [rising, single point] |
| CC(C)c1ccc(S(=O)(=O)c2cnc(SCC(=O)Nc3cccc(C(F)(F)F)c3)nc2N)cc1 | 14.1 µM [rising, single point] |  |
| c1nc(NC2CCNCC2)c2cc(-c3ccc4c(c3)OCO4)ccc2n1 | 31.6 µM [rising, single point] |  |
| Cc1ccccc1OCc1nnc(SCC(=O)N2c3ccccc3Sc3ccc(Cl)cc32)o1 | 0.282 µM [rising, full curve, poor fit] |  |
| COc1ccccc1CN(Cc1nc2ccccc2c(=O)[nH]1)S(=O)(=O)c1ccc(C)cc1 | 20 µM [rising, single point] | 14.1 µM [rising, single point] |
| C=C(C)COc1ccc2c3c(c(=O)oc2c1OCC(=C)C)CCC3 | 31.6 µM [rising, single point] | 31.6 µM [rising, single point] |
| CC(C)(C#N)N([O-])C=C[N+](=O)C(C)(C)C#N |  | 17.8 µM [rising, partial curve] |
| COc1ccc(/C=C/C(=O)c2ccc(C)c([N+](=O)[O-])c2)cc1O | 35.5 µM [falling, single point] | 35.5 µM [falling, single point] |
| Cc1ccc(/C=N/NC(=O)CSc2nc3ccccc3n2Cc2ccccc2)o1 | 4.47 µM [rising, partial curve] |  |
| CCC1=Nc2cc(C(=O)NCc3ccco3)ccc2Sc2ccccc21 | 5.62 µM [rising, single point] |  |
| Cc1ccccc1-c1cncnc1NCCN1CCOCC1 | 25.1 µM [falling, single point] | 17.8 µM [falling, single point] |

| Structure (SMILES) | AC50 [1] | AC50 [2] |
| --- | --- | --- |
| Cc1cc(NC(=O)C2C3C(=O)N(c4cccnc4)C(C(=O)NC(C)(C)C)C34C=CC2(C)O4)no1 (centres undefined) | 1 µM [falling, partial curve] |  |
| CCOC(=O)c1ccc(N2CCN(c3cccc(Cl)c3)CC2)c(NC(=O)Nc2ccc(OC)cc2OC)c1 |  | 0.447 µM [falling, full curve] |
| COc1cc(/C=C/C(=O)OCC(=O)Nc2ccccc2Sc2ccc(Cl)cc2)ccc1O | 28.2 µM [rising, partial curve] | 14.1 µM [rising, partial curve] |
| O=C1C2CC=CCC2C(=O)N1c1ccc(OCC(O)Cn2nnc3ccccc32)cc1 (centres undefined) | 15.8 µM [rising, single point] | 15.8 µM [rising, single point] |
| O=C(Nc1ccc(Cl)cc1C(=O)Nc1ccc(Br)cn1)c1ccco1 | 11.2 µM [rising, single point] | 7.94 µM [rising, partial curve, poor fit] |
| COc1ccc(-c2cc(=O)oc3c(C)c(O)c(CN(C)C)cc23)cc1 | 2.51 µM [rising, partial curve, poor fit] | 2.51 µM [rising, partial curve, poor fit] |
| CCc1ccccc1NC(=O)c1ccc(-n2c(C)ccc2C)cc1 | 15.8 µM [falling, partial curve, poor fit] |  |
| COC(=O)c1ccc(CN2CCN(CCC(C)C)C(CCO)C2)cc1 (centres undefined) | 0.0251 µM [falling, full curve, poor fit] |  |
| COc1ccc2nc(-c3ccc(N)cc3)[nH]c2c1 | 25.1 µM [rising, single point] |  |
| O=C(CN1CCN(c2ccccc2)CC1)Nc1ccc(Oc2ccccc2)cc1 | 31.6 µM [rising, single point] | 35.5 µM [rising, single point] |
| CC(C)(C)c1ccc(OCCn2ccccc2=O)cc1 | 10 µM [rising, partial curve] | 7.08 µM [rising, partial curve] |
| O=C(CN1CCOCC1)Nc1cc(Cl)ccc1Cl |  | 10 µM [rising, single point] |
| CCCCCCCC1=Cc2ccc(F)cc2C(C(C(=O)OC)C(=O)OC)N1C(=O)OC (centres undefined) | 0.00126 µM [falling, full curve, poor fit] |  |
| CCc1ccc(NC(=S)N2CCN(c3cccc(OC)c3)CC2)cc1 | 0.0398 µM [rising, full curve, poor fit] |  |
| COC(=O)c1ccc(CSc2nnc(Nc3ccccc3OC)s2)o1 | 0.0891 µM [rising, single point] |  |
| O=C(NCc1ccc(-c2nc3ccccc3s2)cc1)c1ccco1 | 12.6 µM [rising, single point] |  |
| O=C(COc1ncnc2scc(-c3ccc(Cl)cc3)c12)NCc1ccco1 | 12.6 µM [rising, partial curve] | 8.91 µM [rising, partial curve, poor fit] |
| COc1cc(/C=N/O)cc(Br)c1OS(=O)(=O)c1ccc(C)cc1 | 31.6 µM [rising, single point] |  |
| NNC(=O)CSCc1nc(-c2ccc(Cl)cc2)cs1 | 1 µM [falling, full curve, poor fit] |  |

| Structure (SMILES) | AC50 [1] | AC50 [2] |
| --- | --- | --- |
| Cc1cccc(NC(=S)N=Nc2c(O)n(CN3CCOCC3)c3ccccc23)c1C | 17.8 µM [rising, partial curve] |  |
| Cc1nc(-c2ccc(Cl)cc2)sc1CCNC(=O)c1ccc(C(F)(F)F)cc1 |  | 20 µM [rising, single point] |
| C[C@@H](C(=O)Nc1ccc2ccccc2c1)[C@H]1C[C@]1(C)[C@H](NC(=O)OCc1ccccc1)c1ccccc1 | 20 µM [rising, partial curve] | 22.4 µM [rising, partial curve, poor fit] |
| OC(CNCCC1C=Nc2ccccc21)Cn1c2ccc(Cl)cc2c2cc(Cl)ccc21 (centres undefined) | 25.1 µM [falling, partial curve] | 35.5 µM [falling, single point] |
| O=C(/C=C/c1ccccc1Cl)c1ccccc(=O)c1O |  | 3.98 µM [rising, single point] |
| CC(C)Cn1c(N)c(C(=O)COC(=O)c2c(F)cccc2F)c(=O)n(C)c1=O | 0.0251 µM [falling, full curve, poor fit] |  |
| Nc1cc(=O)[nH]c(SCc2ccc(Cl)cc2)n1 | 14.1 µM [rising, single point] |  |
| Cn1c(CN2CCN(C(=O)c3ccccc3Cl)CC2)nc2cc([N+](=O)[O-])ccc21 | 14.1 µM [rising, single point] |  |
| Nc1ccc(-c2cc(-c3cccc(N)c3)nc(-c3ccccc3)n2)cc1 | 35.5 µM [falling, single point] |  |
| Cc1ccc(S(=O)(=O)N(C)Cc2nc(-c3ccncc3)no2)cc1 | 20 µM [rising, single point] |  |
| Cn1c(=O)c2c(nc(NCc3ccccc3)n2CCCc2ccccc2)n(C)c1=O | 11.2 µM [rising, single point] |  |
| O=C(Nc1nnc(Cc2ccccc2)s1)c1cccnc1 | 12.6 µM [falling, partial curve, poor fit] |  |
| O=C(C[n+]1cc(-c2ccccc2)n2c1CCCCC2)c1ccc(Cl)cc1 | 15.8 µM [rising, single point] |  |
| O=S(=O)(c1ccccc1)N1CCCC1c1cccs1 (centres undefined) | 6.31 µM [falling, full curve, poor fit] |  |
| COC(=O)c1[nH]c2ccccc2c1NC(=O)CN1CCN(C/C=C/c2ccccc2)CC1 | 0.355 µM [falling, full curve] |  |
| COc1ccccc1CNC(=O)C1CC(c2ccc([N+](=O)[O-])cc2)=NO1 (centres undefined) | 35.5 µM [rising, single point] | 31.6 µM [rising, single point] |
| O=C1/C(=C/c2cccnc2)CCC/C1=C\c1cccnc1 |  | 25.1 µM [rising, single point] |
| Cc1cc2ccccc2n1CCNC(=O)c1ccc(S(=O)(=O)N2CCCCC2)cc1 | 10 µM [rising, partial curve, poor fit] |  |

Reformatted: entries from further up
Structure (SMILES)	AC50 [1]	AC50 [2]
Cc1nc(-c2ccc(Cl)cc2)sc1CCNC(=O)c1ccc(C(F)(F)F)cc1		20 µM [rising, single point]
Cc1ccc(S(=O)(=O)N(C)Cc2nc(-c3ccncc3)no2)cc1	20 µM [rising, single point]	
Cn1c(=O)c2c(nc(NCc3ccccc3)n2CCCc2ccccc2)n(C)c1=O	11.2 µM [rising, single point]	
COc1ccccc1CNC(=O)C1CC(c2ccc([N+](=O)[O-])cc2)=NO1 (centres undefined)	35.5 µM [rising, single point]	31.6 µM [rising, single point]

— PubChem BioAssay AID1487 (National Center for Advancing Translational Sciences (NCATS), 2009)
